No constants are given. Whether binding was seen depends on the method and setting. Binding can be weak; no strength is given. Where a sequence is shown, tags or fusion partners need not be part of it.
Target: porcine MTs (microtubules) (porcine)
Assay: cross-linking; BS3 (1 mM, 100-fold excess); 10 μM each of Dcx, Kif1a and MTs; 4 mM ATP; BRB80 pH 6.9; room temperature; SDS-PAGE, silver staining, protein identification by mass spectrometry; both purified

| Binder | binding |
| --- | --- |
| overexpressed and purified full-length human Dcx (protein, UniProt O43602 1-365) MELDFGHFDERDKTSRNMRGSRMNGLPSPTHSAHCSFYRTRTLQALSNEKKAKKVRFYRNGDRYFKGIVYAVSSDRFRSFDALLADLTRSLSDNINLPQGVRYIYTIDGSRKIGSMDELEEGESYVCSSDNFFKKVEYTKNVNPNWSVNVKTSANMKAPQSLASSNSAQARENKDFVRPKLVTIIRSGVKPRKAVRVLLNKKTAHSFEQVLTDITEAIKLETGVVKKLYTLDGKQVTCLHDFFGDDDVFIACGPEKFRYAQDDFSLDENECRVMKGNPSATAGPKASPTPQKTSAKSPGPMRRSKSPADSGNDQDANGTSSSQLSTPKSKQSPISTPTSPGSLRKHKDLYLPLSLDDSDSLGDSM | binds |
| N-terminal HaloTag human KIF1A (amino acids 1-361) fusion protein (domain or fragment, UniProt Q12756 1-361) MAGASVKVAVRVRPFNSREMSRDSKCIIQMSGSTTTIVNPKQPKETPKSFSFDYSYWSHTSPEDINYASQKQVYRDIGEEMLQHAFEGYNVCIFAYGQTGAGKSYTMMGKQEKDQQGIIPQLCEDLFSRINDTTNDNMSYSVEVSYMEIYCERVRDLLNPKNKGNLRVREHPLLGPYVEDLSKLAVTSYNDIQDLMDSGNKARTVAATNMNETSSRSHAVFNIIFTQKRHDAETNITTEKVSKISLVDLAGSERADSTGAKGTRLKEGANINKSLTTLGKVISALAEMDSGPNKNKKKKKTDFIPYRDSVLTWLLRENLGGNSRTAMVAALSPADINYDETLSTLRYADRAKQIRCNAVIN | binds |

— publication PMC3549492
